In PubChem BioAssay AID1347076 (National Center for Advancing Translational Sciences (NCATS), 2019):
Hit rate of the full screen: of about 400,000 compounds, about 13,000 (3.2%) were called active. This list was built around the results that the source calls inconclusive (neither active nor inactive); the mix of calls is not that of the screen. The call rests on the fitted dose curve; in most records, active means well fitted cell-killing curve with a large enough effect; inconclusive means small, poorly fitted or top-dose-only effect, or effect the other way; inactive means flat fitted curve, though single readings scatter. Potencies of inconclusive entries are doubtful fits and often do not repeat.

Test: qHTS assay for MDR1-selective chemotherapeutics: Primary screen using the drug-selected MDR subline cells KB-V1; further: nearly all actives have a fitted effect of over 60% in size
Settings: KB-V1 MDR cells viability, CellTiter-Glo, 72 h; activity change, negative = cytotoxicity: at 46.1 µM (top of the series)
Procedure, shortened: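 Readout: CellTiter-Glo luminescence, 10 min after addition. Cells: KB-V1 MDR subline, 72 h at 37 degrees C with compound. Analysis: corrected, normalized data fitted to concentration-effect curves.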
On the % scale 0 is the no-effect control and ±100 the full control effect; potency means the concentration at half of the fitted maximal effect.

Row | Compound | activity change, negative = cytotoxicity | Potency
1 | Cc1ccc(NC(=O)COc2cccc(/C=C3\SC(=S)N(CCC(=O)O)C3=O)c2)cc1Cl | inactive: 12.3% | –
2 | COc1ccc(NC(=O)/C(Cl)=C(/Cl)S(=O)(=O)Cc2ccc(C)cc2)cn1 | – | inconclusive: 8.2 µM [cytotoxic, partial curve, poor fit]
3 | O=C1c2ccccc2C(=O)c2c1cccc2N1CCN(C/C=C/c2ccccc2)CC1 | inactive: -4.28% | –
4 | CCSc1nc(-c2cccs2)nc2ccccc12 | inactive: -24.3% | –
5 | Cc1cc(N2CCN(C(=O)/C=C/C(=O)O)CC2)c2ccccc2n1 | inactive: -7.62% | –
6 | CCCCn1nc(C(=O)NCC(=O)Nc2c(C)cccc2C)c2ccccc2c1=O | – | active: 1.64 µM
7 | Cc1ccc(Nc2ncnc3sc4c(c23)CCC(C)C4)cc1C (configuration not stated) | – | inconclusive: 25.9 µM [rising, single point]
8 | COc1ccccc1N1CCN(C(=O)C2CCCN(S(=O)(=O)c3ccc4c(c3)CCCN4C(C)=O)C2)CC1 (configuration not stated) | – | inactive
9 | O=C(c1ccc2ccccc2c1)N1CCCC1 | inactive: -13% | –
10 | N#CC1(NC(=O)CSc2nnc(Nc3ccccc3F)s2)CCCC1 | – | inconclusive: 23.1 µM [cytotoxic, single point]
11 | O=C(NN1CCOCC1)c1cc(-c2cccc(Cl)c2)nc2ccccc12 | – | active: 11.6 µM
12 | O=C(Oc1c(-c2ccccc2)c(=O)n2c3c(cccc13)CC2)c1cccc([N+](=O)[O-])c1 | – | inconclusive: 16.4 µM [cytotoxic, single point]
13 | COc1cc(/C=C(/C(=O)c2cccs2)c2nc3ccccc3[nH]2)ccc1O | – | active: 16.4 µM
14 | CCOC(=O)C1CCN(Cc2nnc(-c3cccc(Br)c3)o2)CC1 | inactive: -8.01% | –
15 | COc1cc(Cl)ccc1OCc1cc(C(=O)N(C)Cc2cccc3cnccc23)no1 | – | inconclusive: 5.8 µM [cytotoxic, full curve]
16 | CCOc1ccc(CCN2C(=S)N([C@@H](CC(C)C)CN3CCCC3CN3C(=S)NC[C@@H]3Cc3ccc(O)cc3)C[C@@H]2Cc2ccc(O)cc2)cc1 (some centres not stated) | – | inconclusive: 29.1 µM [cytotoxic, single point]
17 | CC1CCCC(C)N1C(=O)COC(=O)c1ccc[nH]c1=O (configuration not stated) | inactive: 0% | –
18 | COC(=O)C1=C(C)NC(=O)NC1c1cccc(OC)c1OCc1ccccc1 (configuration not stated) | – | inconclusive: 13 µM [cytotoxic, partial curve]
19 | COc1cccc(COC(=O)c2cc(=O)[nH]c3ccc(S(=O)(=O)N4CCOCC4)cc23)c1OC | inactive: 11.3% | –
20 | Cc1ccc(-c2cc(C(=O)N/N=C/c3c(C)nn(C)c3C)c3ccccc3n2)cc1C | – | inconclusive: 18.4 µM [cytotoxic, partial curve]
21 | O=C(Nc1ccccc1)c1nc[nH]c1C(=O)Nc1ccccc1F | – | inconclusive: 23.1 µM [rising, single point]
22 | Cc1ccc(-c2nc(-c3cc4cc(Cl)ccc4oc3=O)sc2C)cc1 | inactive: 0% | –
23 | COC(=O)C(CCSC)Nc1ncnc2onc(-c3ccc(F)cc3)c12 (configuration not stated) | – | inconclusive: 3.66 µM [rising, partial curve, poor fit]
24 | Cc1ccc2nc(-c3ccccc3)c(CN3CCSCC3)n2c1 | – | inconclusive: 16.4 µM [cytotoxic, single point]

A run of entries from further up, as a working copy:
Row | Compound | activity change, negative = cytotoxicity | Potency
8 | COc1ccccc1N1CCN(C(=O)C2CCCN(S(=O)(=O)c3ccc4c(c3)CCCN4C(C)=O)C2)CC1 (configuration not stated) | – | inactive
9 | O=C(c1ccc2ccccc2c1)N1CCCC1 | inactive: -13% | –
10 | N#CC1(NC(=O)CSc2nnc(Nc3ccccc3F)s2)CCCC1 | – | inconclusive: 23.1 µM [cytotoxic, single point]
11 | O=C(NN1CCOCC1)c1cc(-c2cccc(Cl)c2)nc2ccccc12 | – | active: 11.6 µM

Following part

Row | Compound | activity change, negative = cytotoxicity | Potency
25 | COc1ccc(OC)c(NC(=O)COC(=O)COc2c(Cl)cc(Cl)c3ccc(C)nc23)c1 | – | inconclusive: 23.1 µM [rising, partial curve, poor fit]
26 | CCn1c(NC(=O)c2ccc(COc3ccc(C)cc3[N+](=O)[O-])o2)nc2ccccc21 | – | inconclusive: 13 µM [cytotoxic, partial curve, poor fit]
27 | Cc1ccc(CN2CC(C(=O)N3CCN(S(=O)(=O)c4ccc(C(C)C)cc4)CC3)CC2=O)cc1 (configuration not stated) | – | inconclusive: 0.58 µM [cytotoxic, partial curve, poor fit]
28 | COc1cc2nc(SCc3ccc(C)cc3)n3nc(CCn4nc(C)cc4C)nc3c2cc1OC | inactive: 19.8% | –
29 | CSc1ccccc1NC(=O)Cc1ccc(Br)cc1 | – | inconclusive: 23.1 µM [cytotoxic, single point]
30 | O=C(O)c1cccc2c1C(=O)N(CC1CCCO1)C2 (configuration not stated) | – | inconclusive: 0.92 µM [rising, full curve]
31 | O=C(Nc1ccc(Cl)cc1)c1ccc(S(=O)(=O)N2CCOCC2)cc1 | inactive: -20.4% | –
32 | CCOc1ccc(N/C(C)=C/C(=O)c2ccc3c(c2)OCCO3)cc1 | inactive: 1.06% | –
33 | CNC(=O)CN1C(=O)COc2ccc(S(=O)(=O)N3CCC(C)CC3)cc21 | – | inconclusive: 29.1 µM [cytotoxic, partial curve, poor fit]
34 | COCCNC(=O)c1ccccc1NC(=O)c1nsc2ccccc12 | inactive: -16.5% | –
35 | O=C(COC(=O)c1ccc(OC(F)F)cc1)NC(=O)NC1CCCC1 | – | inconclusive: 29.1 µM [rising, single point]
36 | C=CCn1cnc2c(nnn2-c2ccc(C)c(C)c2)c1=O | – | inconclusive: 13 µM [cytotoxic, single point]
37 | CCN1C(=O)/C(=C2\C=Cc3ccccc3N2CC)OC1=S | – | inconclusive: 2.31 µM [cytotoxic, full curve]
38 | COC(=O)c1ccc(CSC(=N)N)o1 | inactive: 0.938% | –
39 | Cn1c(SCC(=O)c2ccc3c(c2)Cc2ccccc2-3)nnc1-c1ccccc1 | inactive: 2.8% | –
40 | O=C(Oc1cccc2c(=O)[nH]ccc12)c1ccccc1 | – | inconclusive: 16.4 µM [rising, partial curve, poor fit]
41 | COc1ccc(-c2csc(NC(=O)Cc3cc(OC)c(OC)c(OC)c3)n2)cc1OC | – | active: 6.51 µM
42 | Cc1cc2[nH]c(=O)c(=O)[nH]c2cc1S(=O)(=O)N1CCN(c2cccc(Cl)c2)CC1 | – | inconclusive: 23.1 µM [rising, single point]
43 | O=C(Nc1ccncc1)c1ccc(Cl)c(S(=O)(=O)N2CCc3ccccc32)c1 | – | inconclusive: 18.4 µM [cytotoxic, partial curve, poor fit]
44 | Cc1nnsc1-c1nc2ccccc2n1C(CCc1ccccc1)c1nc2ccccc2[nH]1 (configuration not stated) | – | inconclusive: 16.4 µM [cytotoxic, partial curve]
45 | CC(=O)Nc1ccc(S(=O)(=O)N2c3ccc(F)cc3CCC2C)cc1 (configuration not stated) | inactive: -3.61% | –
46 | COc1ccc2[nH]cc(CCN=C(NC(=O)c3ccccc3OC)Nc3nc(C)cc(C)n3)c2c1 | – | inconclusive: 25.9 µM [cytotoxic, partial curve]
47 | Cc1ccc(-n2cnnn2)cc1S(N)(=O)=O | – | inconclusive: 29.1 µM [rising, partial curve, poor fit]
48 | COc1nc(-c2ccccc2)cc(-c2ccc(OC)c(OC)c2)n1 | – | active: 8.2 µM

Row | Compound | activity change, negative = cytotoxicity | Potency
49 | Cc1ccc(S(=O)(=O)Oc2ccc(C)cc2/C=N/N=C2\NC(=O)C(C)S2)cc1 (configuration not stated) | inactive: -14.3% | –
50 | CCOc1ccccc1CNC(=O)CCNC(=O)Cn1ccc2ccccc2c1=O | inactive: -0.118% | –
51 | Cc1ccc(-c2csc3ncnc(N4CCN(c5ccccc5O)CC4)c23)cc1 | – | inconclusive: 32.6 µM [cytotoxic, single point]
52 | CC(C)(C)Nc1nc(SCC(=O)Nc2ccccc2Cl)nc(N2CCOCC2)n1 | – | inconclusive: 5.8 µM [cytotoxic, full curve]
53 | Cc1ccc(C)c(S(=O)(=O)N2CCCC2CNC(=O)C(=O)NC2CCCC2)c1 (configuration not stated) | inactive: -10.1% | –
54 | O=S(NCc1ccco1)C12CC3CC(CC(C3)C1)C2 (configuration not stated) | inactive: 2.89% | –
55 | COC(=O)c1sccc1NC(=S)N1CC(C)CC(C)C1 (configuration not stated) | – | inconclusive: 2.31 µM [cytotoxic, full curve, poor fit]
56 | Cc1ccc(S(=O)(=O)N(C)C)cc1NC(=O)CN1c2cccc3cccc(c23)S1(=O)=O | – | inconclusive: 16.4 µM [cytotoxic, single point]
57 | COc1ccc2c(c1)c1nc3ccccc3nc1n2Cc1ccc(OC(C)C)c(OC)c1 | – | inconclusive: 11.6 µM [cytotoxic, partial curve]
58 | O=C(CCN1C(=O)COc2ccccc21)NCCCN1CCN(c2ccccc2F)CC1 | – | inconclusive: 7.31 µM [cytotoxic, partial curve]
59 | COc1cc(NS(=O)(=O)c2ccc(Br)s2)cc(OC)c1 | – | active: 16.4 µM
60 | COC(=O)[C@@]12C[C@@H](CC(=O)NCc3ccccc3)C(=O)N(CCc3ccc(OC)c(OC)c3)C1=CCC(C)(C)C2 | – | inconclusive: 5.8 µM [cytotoxic, partial curve]
61 | CCOc1ccccc1NC(=O)CSc1nnc(CNC(=O)c2cccs2)o1 | inactive: -6% | –
62 | COc1cccc(NC(=O)Cn2c(=O)n(-c3ccccc3)c(=O)c3oc4ccccc4c32)c1 | – | active: 20.6 µM
63 | COc1cc(CNCc2ccccc2)ccc1OCC(O)c1ccccc1 (configuration not stated) | inactive: -3.23% | –
64 | Cc1ccc(NC(=O)CCc2c[nH]c3ccccc23)nc1 | – | inconclusive: 16.4 µM [cytotoxic, single point]
65 | O=P(O)(CCc1ccccn1)CN1CCOCC1 | inactive: 16.8% | –
66 | CN(C(=O)c1ccc(NC(=O)Cc2ccc(NC(=O)C3CCCN(S(=O)(=O)c4cccc([N+](=O)[O-])c4)C3)cc2)cc1)C1CCCC1 (configuration not stated) | inactive: -16% | –
67 | O=C(C1=NOC(CNc2ncc(C(F)(F)F)cc2Cl)C1)N1CCOCC1 (configuration not stated) | inactive: -19.7% | –
68 | C[C@H]1COc2cc(N(C)CCO)ccc2S(=O)(=O)N1 | – | inconclusive: 29.1 µM [rising, single point]
69 | CC1(C(=O)Nc2ccc(Cl)cc2)Cc2c(-c3ccc4c(c3)OCO4)ccnc2O1 (configuration not stated) | – | inconclusive: 23.1 µM [cytotoxic, single point]
70 | CCN(CC)CCn1c2ccccc2c2cnc(N)c(C#N)c21 | – | inconclusive: 18.4 µM [cytotoxic, partial curve, poor fit]
71 | C=CCn1c(SCC(=O)NCc2ccco2)nc2ccccc2c1=O | inactive: -20% | –
72 | CC1(O)CC(c2ccc(Cl)cc2)=NN1C(=O)c1ccc([N+](=O)[O-])cc1 (configuration not stated) | – | inconclusive: 25.9 µM [cytotoxic, single point]
